Values of other authors, collected in patent publication US12130283B2, “Methods, systems and compositions for functional in vitro cellular models of mammalian systems” (University of Central Florida Research Foundation, Inc., priority 2012, dated 2024).
At least one structure is not confirmed: it was looked up by name or label, or the drawing left a doubt.

Details: cited from earlier work

CC1(C)C(C=C(Cl)Cl)C1C(=O)OCc1cccc(Oc2ccccc2)c1 (stereo not drawn) [cis-permethrin]
metabolic rate relative to the trans isoform: much slower
